This note sets out measurements from PubChem BioAssay AID651595 (National Center for Advancing Translational Sciences (NCATS), 2012).

Among all 1,100 compounds or so, fewer than 10 were called active. Not shown: some 6% with an inconclusive outcome. Calls come from the whole dose curve; as a rule, active = well fitted cell-killing curve with a large enough effect; inconclusive = small, poorly fitted or top-dose-only effect; inactive = flat fitted curve, though single readings scatter. Some of the results follow.

A short description of this assay: qHTS of Nrf2 Activators: Hit Validation in Cytotox Assay.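 Note: compound exposure lasted 24 hours before the ATP readout; 0% is about no effect.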 Particulars: Cell viability counter-screen for Nrf2 activator hits; series mostly up to 46.1 µM; activity change, negative = cytotoxicity: at the top concentration. In outline: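 AREc32_fluc cells plated overnight, then treated at 7 concentrations for 24 h at 37 °C. Viability from intracellular ATP by CellTiter-Glo luminescence after 30 min at room temperature; cytotoxic compounds flagged active.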
Regarding `COc1ccc(NC(=O)CSc2ccc(-c3ccco3)nn2)cc1OC`, the “activity change, negative = cytotoxicity” value is inactive: 3.14%.
In the case of `COCCn1c(=NC(=O)c2cc(Cl)sc2Cl)sc2cc(S(N)(=O)=O)ccc21`, the “activity change, negative = cytotoxicity” value is inactive: -4.77%.
The figure for `O=C(Nc1ccccc1)c1nc[nH]c1C(=O)Nc1ccccc1F` is inactive: 6.57%; for `FC(F)(F)c1cc(-c2ccco2)nc(NCc2ccco2)n1` it is inactive: 2.32%; for `CNc1nc(N)c([N+](=O)[O-])c(Nc2cccc(Cl)c2)n1` it is inactive: -0.263%.
As for `Oc1ccc(NCc2cccc(OCc3ccc(F)cc3)c2)cc1`, the “activity change, negative = cytotoxicity” value is inactive: -22%.
The figure for `CCc1c(C)sc(NC(=O)c2ccco2)c1C#N` is inactive: 12.1%.
As to `O=C(Nc1nccc(-c2cccs2)n1)c1cccs1`, the “activity change, negative = cytotoxicity” value was inactive: -1.81%.
The result for `O=C(Nc1ccccc1)N1CCn2c1nc1ccccc12` reads inactive: 2.76%.
Consider `Clc1cc(-c2ccccc2)nc(-c2ccccc2)n1`, for which the “activity change, negative = cytotoxicity” value was inactive: 13.6%.
The figure for `CCn1c(=O)oc2cc(NC(=O)CCl)ccc21` is inactive: -26.7%.
The figure for `O=C(Nc1ccc(F)cc1)c1sccc1SCc1cccc(C(F)(F)F)c1` is inactive: 6.24%; for `CCC(CC)c1nnc(NC(=O)/C=C/c2ccco2)s1` it is inactive: 5.01%; for `N#Cc1ccccc1N/C=C/C(=O)c1ccc(Cl)cc1` it is inactive: -19.6%.
The result for `Nc1c(C(=O)c2cccs2)oc2ccccc12` reads inactive: 2.9%; that for `CC(=O)c1nn(-c2ccccc2)cc1C(=O)c1cccc(Br)c1`, inactive: -18.1%; that for `COc1c(Cl)cc(C(=O)NCc2ccco2)cc1Cl`, inactive: 9.53%.
For `COc1ccc2[nH]c3c(NCc4ccco4)ncnc3c2c1`, the “activity change, negative = cytotoxicity” value is inactive: -2.65%.
The result for `COc1ccc(Cl)cc1-c1nc(-c2ccncc2)no1` reads inactive: 0.603%.
With `O=C1/C(=C\c2ccco2)NC(=S)N1c1ccccc1`, the “activity change, negative = cytotoxicity” value is inactive: 5.34%.
The figure for `COCCn1c(C(F)(F)F)ccc(NC(=O)c2ccccc2)c1=O` is inactive: 3.26%; for `COc1ccc(O)c(-c2cc(-c3ccccc3Cl)[nH]n2)c1` it is inactive: -8.44%; for `O=C(CSc1nnc(-c2ccco2)c(-c2ccco2)n1)c1ccccc1` it is inactive: 2.57%.
The figure for `CCC1C/C(=C/c2cccs2)C(=O)/C(=C/c2cccs2)C1` (stereo not drawn) is inactive: -5.02%; for `C/C(=N\Nc1ccc(F)cc1F)c1ccc(Br)s1` it is inactive: -0.678%; for `CS(=O)(=O)c1nc(S(=O)(=O)c2ccc(Cl)cc2)c(N2CCOCC2)s1` it is inactive: 4.33%.
Turning to `CN(C)/C=N/C1=C(C#N)C(c2cccs2)c2ccc3ccccc3c2O1` (stereo not drawn), the “activity change, negative = cytotoxicity” value was inactive: -2.33%.
As to `Nc1nc(Nc2ccccc2F)nc(NCc2ccco2)c1[N+](=O)[O-]`, the “activity change, negative = cytotoxicity” value was inactive: -9.95%.
For `CC1=NC(=O)C(N=Nc2cccc(O)c2)N1c1ccccc1` (stereo not drawn), the “activity change, negative = cytotoxicity” value was inactive: -10.7%.
The result for `O=[N+]([O-])c1cccc(N2Cc3ccccc3C2)c1` reads inactive: -2.14%; that for `O=C(CN1CCS(=O)(=O)CC1)N/N=C/c1cccc(C(F)(F)F)c1`, inactive: -11.8%.
Take `C/C(=N\Nc1ccc2nncn2n1)c1ccc(Cl)s1`: the “activity change, negative = cytotoxicity” value was inactive: 7.74%.
Turning to `CS(=O)(=O)c1nc(S(=O)(=O)c2ccc(Cl)cc2)c(N2CCN(CCO)CC2)s1`, the “activity change, negative = cytotoxicity” value is inactive: 1.46%.
